Test results reported in the supplement of paper PMC7125110.
± gives the standard error. Many of these values have a large error.

B1: glmS ribozyme (parent)
chain: AUAAAAGCGCCAGAACUACAGAAAUGUAGUUGACGAGGAGGAGGUUUAUCGAAUUUUCGGCGGAUGCCUCCAAA

Variants of: B1
Experiment: kcat; higher = faster cleavage; RNA array
Conditions: with glucosamine-6-phosphate
Summary of the method: (§1)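 kobs was derived by fitting per-tile medians to one- or two-exponential decays after normalising signals to baseline and to non-cleaving reference variants. Those signals came from barcoded ribozyme variants transcribed in situ by E. coli RNA polymerase on sequenced MiSeq chips, followed through a hybridised Cy3 probe at 37 °C and imaged over ~14 h. Glucosamine-6-phosphate (40 μM to 10 mM) in HEPES/KCl/Mg(OAc)2 buffer was flowed in. Weighted Michaelis–Menten fits across concentrations then gave kcat and KM.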

Variant	kcat [s⁻¹]
AUAAAAGCGCCUGAUCUACAGAAAUGUAGUUGACGAGGAGGGGGUUUAUCGAAUUUUCGGCGGAUGCCUCCAAA [A12U A15U A42G]	0.00216 ± 0.0014
AUAAAAGCGCCUGAACUACAGAAAUGUAGUUGACGAGGAGGAGGUUUAUCGGAUUUUCGGCGGAUGCCUCCAAA [A12U A52G]	0.016 ± 0.0097
AUAAAAGCGCCUGAACUACAGAAAUGUAGUUGACGAGGAGGAGGUUUAUCGAUUUUUCGGCGGAUGCCUCCAAA [A12U A53U]	0.0471 ± 0.024
AUAAAAGCGCCACAACUACAGAAAUGUAGUGGACGAGGAGGAGGUUUAUCGAAUUUUCGGCGGAUGCCUUCAAA [G13C U31G C70U]	0.000159 ± 3.6e-05
AUAAAAGCGCCAUAACUACAGAAAUGUAGUUGACGAGGAGGAGGUUUAUCGAAUUUUAGGCGGAUGCCUCCAAA [G13U C58A]	0.00192 ± 0.0011
AUAAAAGCGCCAUAACUACAGAAAUGUAGUUGACGAGGAGGAGUUUUAUCGAAUUUUCGGCGGAUGCCUCCAAA [G13U G44U]	< 1e-05
AUAAAAGCGCCAGCACUACAGAAAUGUAGUUGACGAGGAGGAGGUUUAUCGAAAUUUCGGCGGAUGCCUCCAAA [A14C U54A]	0.00395 ± 0.0022
AUAAAAGCGCCAGGACUACAGAAAUGUAGUUGACGAGGAGGAGGUUUAUCGACUUUUCGGCGGAUGCCUCUAAA [A14G A53C C71U]	0.00788 ± 0.0043
AUAAAAGCGCCAGGACUACAGAAAUGUAGUUGACGAGGAGGAGGUUUAUCGAAUUUUCGGAGGAUGCCUCCAAA [A14G C61A]	1.1e-05 ± 4.8e-06
AUAAAAGCGCCAGGACUACAGAAAUGUAGUUGACGAGGAGGAGGUUUAUCGAAAUUUCGGCGGAUGCCUCCAAA [A14G U54A]	0.0217 ± 0.014
AUAAAAGCGCCAGUAUUACAGAAAUGUAGUUGACGAGGAGGAGGUUUAUCGAAUUUUCGGCGGAUGCCUCCAAA [A14U C16U]	0.00393 ± 0.0021
AUAAAAGCGCCAGUACUACAGAAAUGUAGUUGACGAGGAGGAGGUUUAUCGAAUUUUCGGCGGAUGACUCCAAA [A14U C67A]	0.00153 ± 0.00048
AUAAAAGCGCCAGUACUACAGAAAUGUAGUUCACGAGGAGGAGGUUUAUCGAAUUUUCGGCGGAUGACUCCAAA [A14U G32C C67A]	0.000192 ± 9.7e-05
AUAAAAGCGCCAGACCUACAGAAAUGUAGUUGACGAGGAGGAGGUUUCUCGAAUUUUCGGCGGAUGCCUCCAAA [A15C A48C]	0.000268 ± 0.00017
AUAAAAGCGCCAGACGUACAGAAAUGUAGUUGACGAGGAGGAGGUUUAUCGAAUUUUCGGCGGAUGCCUCCAAA [A15C C16G]	0.00395 ± 0.0024
AUAAAAGCGCCAGAGUUACAGAAAUGUAGUUGACGAGGAGGAGGUUUAUCGAAUUUUCGGCGGAUGCGUCCAAA [A15G C16U C68G]	5.74e-05 ± 2.6e-05
AUAAAAGCGCCAGAGCUACAGAAAUGUAGUUGACGAGGAGGAGGUUUAUGGAAUUUUCGGCGGAUGCCUUCAAA [A15G C50G C70U]	6.81e-05 ± 3.6e-05
AUAAAAGCGCCAGAGCUACAGAAAUGUAGUUGACGAGGAGGAGGUUAAUCGAAUUUUCGGCGGAUGCCUCCAAA [A15G U47A]	0.0213 ± 0.015
AUAAAAGCGCCAGAUCUACAGAAAUGUAGUUGACGAGGAGGAGGUUUAUCGAAUUUUCGGCGGAUGCCUGAAAA [A15U C70G C71A]	1.99e-05 ± 1.7e-05

Variants of: B1
Experiment: self-cleavage kobs at 10000 uM GlcN6P; higher = faster cleavage; RNA array
Conditions: with glucosamine-6-phosphate
Summary of the method: as §1

Variant	self-cleavage kobs at 10000 uM GlcN6P [s⁻¹]
AUAAAAGCGCCUGAUCUACAGAAAUGUAGUUGACGAGGAGGGGGUUUAUCGAAUUUUCGGCGGAUGCCUCCAAA [A12U A15U A42G]	0.0212 ± 0.015
AUAAAAGCGCCAGAGUUACAGAAAUGUAGUUGACGAGGAGGAGGUUUAUCGAAUUUUCGGCGGAUGCGUCCAAA [A15G C16U C68G]	2.5e-05 ± 1.8e-05

Variants of: B1
Experiment: KM; higher = weaker cofactor use; RNA array
Conditions: with glucosamine-6-phosphate
Summary of the method: as §1

Variant	KM [µM]
AUAAAAGCGCCUGAACUACAGAAAUGUAGUUGACGAGGAGGAGGUUUAUCGGAUUUUCGGCGGAUGCCUCCAAA [A12U A52G]	11300 ± 8200
AUAAAAGCGCCUGAACUACAGAAAUGUAGUUGACGAGGAGGAGGUUUAUCGAUUUUUCGGCGGAUGCCUCCAAA [A12U A53U]	1310 ± 840
AUAAAAGCGCCACAACUACAGAAAUGUAGUGGACGAGGAGGAGGUUUAUCGAAUUUUCGGCGGAUGCCUUCAAA [G13C U31G C70U]	1340 ± 910
AUAAAAGCGCCAUAACUACAGAAAUGUAGUUGACGAGGAGGAGGUUUAUCGAAUUUUAGGCGGAUGCCUCCAAA [G13U C58A]	4360 ± 3500
AUAAAAGCGCCAGCACUACAGAAAUGUAGUUGACGAGGAGGAGGUUUAUCGAAAUUUCGGCGGAUGCCUCCAAA [A14C U54A]	1250 ± 1100
AUAAAAGCGCCAGGACUACAGAAAUGUAGUUGACGAGGAGGAGGUUUAUCGACUUUUCGGCGGAUGCCUCUAAA [A14G A53C C71U]	1290 ± 1100
AUAAAAGCGCCAGGACUACAGAAAUGUAGUUGACGAGGAGGAGGUUUAUCGAAAUUUCGGCGGAUGCCUCCAAA [A14G U54A]	589 ± 470
AUAAAAGCGCCAGUAUUACAGAAAUGUAGUUGACGAGGAGGAGGUUUAUCGAAUUUUCGGCGGAUGCCUCCAAA [A14U C16U]	701 ± 560
AUAAAAGCGCCAGUACUACAGAAAUGUAGUUGACGAGGAGGAGGUUUAUCGAAUUUUCGGCGGAUGACUCCAAA [A14U C67A]	1240 ± 540
AUAAAAGCGCCAGUACUACAGAAAUGUAGUUCACGAGGAGGAGGUUUAUCGAAUUUUCGGCGGAUGACUCCAAA [A14U G32C C67A]	12200 ± 9500
AUAAAAGCGCCAGACCUACAGAAAUGUAGUUGACGAGGAGGAGGUUUCUCGAAUUUUCGGCGGAUGCCUCCAAA [A15C A48C]	43800 ± 33000
AUAAAAGCGCCAGACGUACAGAAAUGUAGUUGACGAGGAGGAGGUUUAUCGAAUUUUCGGCGGAUGCCUCCAAA [A15C C16G]	5120 ± 4200
AUAAAAGCGCCAGAGCUACAGAAAUGUAGUUGACGAGGAGGAGGUUAAUCGAAUUUUCGGCGGAUGCCUCCAAA [A15G U47A]	1570 ± 1400

An excerpt of these results, as comma-separated lines:
Variant,KM [µM]
AUAAAAGCGCCACAACUACAGAAAUGUAGUGGACGAGGAGGAGGUUUAUCGAAUUUUCGGCGGAUGCCUUCAAA [G13C U31G C70U],1340 ± 910
AUAAAAGCGCCAUAACUACAGAAAUGUAGUUGACGAGGAGGAGGUUUAUCGAAUUUUAGGCGGAUGCCUCCAAA [G13U C58A],4360 ± 3500
AUAAAAGCGCCAGCACUACAGAAAUGUAGUUGACGAGGAGGAGGUUUAUCGAAAUUUCGGCGGAUGCCUCCAAA [A14C U54A],1250 ± 1100
AUAAAAGCGCCAGGACUACAGAAAUGUAGUUGACGAGGAGGAGGUUUAUCGACUUUUCGGCGGAUGCCUCUAAA [A14G A53C C71U],1290 ± 1100
AUAAAAGCGCCAGGACUACAGAAAUGUAGUUGACGAGGAGGAGGUUUAUCGAAAUUUCGGCGGAUGCCUCCAAA [A14G U54A],589 ± 470
AUAAAAGCGCCAGUAUUACAGAAAUGUAGUUGACGAGGAGGAGGUUUAUCGAAUUUUCGGCGGAUGCCUCCAAA [A14U C16U],701 ± 560

Variants of: B1
Experiment: self-cleavage kobs at 2500 uM GlcN6P; higher = faster cleavage; RNA array
Conditions: with glucosamine-6-phosphate
Summary of the method: as §1

Variant	self-cleavage kobs at 2500 uM GlcN6P [s⁻¹]
AUAAAAGCGCCAGACGUACAGAAAUGUAGUUGACGAGGAGGAGGUUUAUCGAAUUUUCGGCGGAUGCCUCCAAA [A15C C16G]	0.000577 ± 0.00032

Variants of: B1
Experiment: self-cleavage kobs at 640 uM GlcN6P; higher = faster cleavage; RNA array
Conditions: with glucosamine-6-phosphate
Summary of the method: as §1

Variant	self-cleavage kobs at 640 uM GlcN6P [s⁻¹]
AUAAAAGCGCCAGAGCUACAGAAAUGUAGUUGACGAGGAGGAGGUUAAUCGAAUUUUCGGCGGAUGCCUCCAAA [A15G U47A]	0.00267 ± 0.0015
AUAAAAGCGCCAGAUCUACAGAAAUGUAGUUGACGAGGAGGAGGUUUAUCGAAUUUUCGGCGGAUGCCUGAAAA [A15U C70G C71A]	9.64e-05 ± 7.4e-05

Variants of: B1
Experiment: self-cleavage kobs at 160 uM GlcN6P; higher = faster cleavage; RNA array
Conditions: with glucosamine-6-phosphate
Summary of the method: as §1

Variant	self-cleavage kobs at 160 uM GlcN6P [s⁻¹]
AUAAAAGCGCCAGAGCUACAGAAAUGUAGUUGACGAGGAGGAGGUUAAUCGAAUUUUCGGCGGAUGCCUCCAAA [A15G U47A]	0.00126 ± 0.00084
